Our source for the binding values is patent US20210214435A1.

These are yes or no findings as the source states them, for the method shown. A result given as binding can be weak or reduced; the word gives no strength.

Assay [1] addresses cynomolgus monkey GPVI on the cell surface of cynomolgus monkey platelets (cynomolgus monkey). In words: FACS on washed cynomolgus platelets from PRP (one donor), PE-conjugated detection antibody, median fluorescence.
The target is the same in assay [2]. In words: FACS on platelets from platelet-rich plasma.

B1: Fab #4 comprising a modified heavy chain constant region (Fab, V domains shown)
VH: QVQLVQSGAEVKKPGASVKVSCKASGGAFTSSYMHWVRQAPGQGLEWMGIIEPTGASTLYAQRFQGRVTMTRDTSTSTVYMELSSLRSEDTAVYYCARTGIALPLGFDLWGQGTLVTVSS
VL: QSVLTQPPSVSAAPGQKVTISCSGSSSNIGNNYVSWYQQLPGTAPKLLIYDNNKRPSGIPDRFSGSKSGTSATLGITGLQTEDEADYYCAAWSTRFRWVFGGGTKLTVLG
Consider B1, for which the binding entry in assay [1] and in assay [2] was “binds” throughout.

B2: Fab #1 comprising a modified heavy chain constant region (Fab, V domains shown)
VH: QVQLVQSGAEVKKPGASVKVSCKASGYTFTSHYMHWVRQAPGQGLEWMGLIEPSEGETEYAQRFQGRVTMTRDTSTSTVYMELSSLRSEDTAVYYCARDSSRSYPLGFDIWGQGTLVTVSS
VL: QSVLTQPPSVSAAPGQKVTISCSGSSSNIGNNYVSWYQQLPGTAPKLLIYDNNKRPSGIPDRFSGSKSGTSATLGITGLQTEDEADYYCAAWDFRSSRWVFGGGTKLTVLG
For B2, the binding result in assay [1] and in assay [2] was “binds” throughout.

B3: Fab #2 comprising a modified heavy chain constant region (Fab, V domains shown)
VH: QVQLVESGGGLVKPGGSLRLSCAASGFSFSDHYMSWIRQAPGKGLEWVSSVGSEGKFIDYAASVKGRFTISRDNAKNSLYLQMNSLRAEDTAVYYCARHYREFRWHYYYFDYWGQGTLVTVSS
VL: QSVLTQPPSVSGAPGQRVTISCTGSSSNIGAGYDVHWYQQLPGTAPKLLIYGNSNRPSGVPDRFSGSKSGTSASLAITGLQAEDEADYYCQSHDLGAHVWVFGGGTKLTVLG
As to B3, the binding entry in assay [1] and in assay [2] was “binds” throughout.

B4: Fab #3 comprising a modified heavy chain constant region (Fab, V domains shown)
VH: QVQLVESGGGLVKPGGSLRLSCAASGFSFGDYYVSWIRQAPGKGLEWVSAIGGSGSAVQYAESVKGRFTISRDNAKNSLYLQMNSLRAEDTAVYYCARHYREFRWHYYYFDYWGQGTLVTVSS
VL: QSVLTQPPSVSGAPGQRVTISCTGSSSNIGAGYDVHWYQQLPGTAPKLLIYGNSNRPSGVPDRFSGSKSGTSASLAITGLQAEDEADYYCQSHDLGAHVWVFGGGTKLTVLG
For the molecule B4, the binding result in assay [1] and in assay [2] was “binds” throughout.

B5: Reference Control Antibody RefFab #1 (humanized GPVI antibody of WO2011073954A2, SANOFI) (Fab, V domains shown)
VH: EVQLLESGPGLVAPSGSLSITCTVSGFSLTGYGVNWVRQPPGKGLEWLGMIWGDGSTDYQSTLKSRLSISKDNSKSQVFLKMNSLRTDDTARYYCARDLPMDYWGLGTSVTVSS
VL: DIQMTQSPSSLSASVGGRVTITCKASQDINKYIAWYQHKPGKGPSLLIHYTSTLQPGVPSRFSGSGSGRDYSFSISNLQPEDIATYYCLQYANLLTFGGGTKLEIKR
For B5, the binding result in assay [1] is on record as “binds”.
